Data: doi:10.1101/2025.08.05.668554
No constants are given. Whether binding was seen depends on the method and setting. In cells and extracts the contact can be indirect. Some results given as binding are weak or reduced against the parent protein; the word gives no strength.

Chains of the proteins cited; added tags and fusions are not shown.
UniProt P68400: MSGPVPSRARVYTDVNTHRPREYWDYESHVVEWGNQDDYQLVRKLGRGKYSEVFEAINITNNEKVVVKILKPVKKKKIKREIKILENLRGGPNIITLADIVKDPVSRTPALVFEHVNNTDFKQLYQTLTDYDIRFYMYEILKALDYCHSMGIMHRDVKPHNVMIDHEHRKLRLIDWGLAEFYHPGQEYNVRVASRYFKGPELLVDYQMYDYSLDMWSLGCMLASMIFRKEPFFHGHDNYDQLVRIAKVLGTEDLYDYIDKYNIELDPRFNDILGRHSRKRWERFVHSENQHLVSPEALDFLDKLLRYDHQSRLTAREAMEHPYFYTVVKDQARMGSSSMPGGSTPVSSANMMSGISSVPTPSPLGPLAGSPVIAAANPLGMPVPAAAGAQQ
UniProt Q14914: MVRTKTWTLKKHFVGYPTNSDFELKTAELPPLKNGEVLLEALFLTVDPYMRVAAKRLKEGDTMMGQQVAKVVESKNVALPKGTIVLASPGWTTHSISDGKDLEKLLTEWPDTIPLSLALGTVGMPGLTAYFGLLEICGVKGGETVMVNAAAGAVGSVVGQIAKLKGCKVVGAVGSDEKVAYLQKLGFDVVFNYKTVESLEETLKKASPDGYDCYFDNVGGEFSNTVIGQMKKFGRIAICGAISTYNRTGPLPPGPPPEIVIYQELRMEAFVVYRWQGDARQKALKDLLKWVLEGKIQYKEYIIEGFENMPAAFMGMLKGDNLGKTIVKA

Biological target: CK2α1 (UniProt P68400)
Assay: co-IP

PTGR1 (from UniProt Q14914 1-329)
binding: binds
